Test results: paper doi:10.1101/2021.02.18.431817
These are yes or no findings as the source states them, for the method shown. Some results given as binding are weak or reduced against the parent protein; the word gives no strength. Where a sequence is shown, tags or fusion partners need not be part of it.

Key:
[1] = molecular target: T1, SAP2, mating-based split-ubiquitin (mbSUS) fusion (A. thaliana) (UniProt Q8H0X0); assay: two-hybrid
T1 sequence: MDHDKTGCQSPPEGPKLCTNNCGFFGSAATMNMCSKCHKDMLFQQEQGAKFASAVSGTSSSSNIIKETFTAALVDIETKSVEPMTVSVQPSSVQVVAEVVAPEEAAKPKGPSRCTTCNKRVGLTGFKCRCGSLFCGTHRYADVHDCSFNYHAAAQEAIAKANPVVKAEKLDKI

[2] = molecular target: T2, SAP3, mating-based split-ubiquitin (mbSUS) fusion (A. thaliana) (UniProt Q9ZNU9); assay: two-hybrid
T2 sequence: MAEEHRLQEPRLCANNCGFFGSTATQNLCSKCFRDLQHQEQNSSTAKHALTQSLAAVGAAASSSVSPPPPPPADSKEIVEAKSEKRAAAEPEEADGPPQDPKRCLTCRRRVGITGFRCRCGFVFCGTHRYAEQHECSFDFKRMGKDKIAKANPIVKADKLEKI

- binding [1]: binds
- binding [2]: binds
B1: CML49, mating-based split-ubiquitin (mbSUS) fusion (protein, UniProt Q8W4L0 1-335)
chain: MSGYPPSSQGYGYGGNPPPPQPPYGSTGNNPPPYGSSGSNPPPPYGSSASSPYAVPYGAQPAPYGAPPSAPYASLPGDHNKPHKEKPHGASYGSPSPGGYGAHPSSGPSDYGGYGGAPQQSGHGGGYGGAPQQSGHGGGYGAPPPQASYGSPFASLVPSAFPPGTDPNIVACFQAADRDNSGFIDDKELQGALSSYNQSFSIRTVHLLMYLFTNSNVRKIGPKEFTSLFFSLQNWRSIFERFDKDRSGRIDTNELRDALMSLGFSVSPVILDLLVSKFDKSGGRNRAIEYDNFIECCLTVKGLTEKFKEKDTALSGSAIFNYENFMLTVLPFLVA
